# Experimental data as given in PubChem BioAssay AID624297 (National Center for Advancing Translational Sciences (NCATS), 2012).
# Screen size: about 340,000 compounds; about 6,200 (1.8%) were called active. The inconclusive results got no clear call from the source; some entries with a clear call stand among them for comparison. Calls come from the whole dose curve; as a rule, active = well fitted activation curve with a large enough effect; inconclusive = small, poorly fitted or top-dose-only effect; inactive = no such curve, though single readings can be large or run the other way. Where the call is inconclusive, the potency comes from a doubtful curve fit.
# Experiment: A quantitative high throughput screen for small molecules that induce DNA re-replication in SW480 colon adenocarcinoma cells. For re-replication activation: % of control where 0% means no effect. Note: nearly all actives have a fitted effect of over 55% in size.
# Conditions: Hoechst DNA content imaging, 48 h; re-replication activation: at 46.1 µM (top of the series) unless noted
# Procedure, shortened: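 Quantitative HTS format with DMSO vehicle controls; 48 hr drug incubation at 37 C, then 40 min Hoechst staining and scanning imager measurement at 405 nm excitation.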
# Potency is the fitted concentration of half-maximal effect.
Compound,Potency,re-replication activation
CCc1ccccc1NC(=O)c1ccc2c(O)c(S(=O)(=O)c3ccc(OC)cc3)c(=O)[nH]c2c1,"inconclusive: 29.1 µM [activator, partial curve, poor fit]",–
O=S(=O)(c1ccccc1OC(F)(F)F)N1CCN(c2ccnc3cc(Cl)ccc23)CC1,"inconclusive: 16.4 µM [activator, partial curve, poor fit]",–
O=C1C(Cc2ccccc2)Nc2ncnc(N3CCN(c4ccccc4)CC3)c2N1Cc1ccc(Br)cc1 (stereo not given),"inconclusive: 20.6 µM [activator, partial curve, poor fit]",–
O=C(/C=C/c1ccc(O)cc1)c1ccc(NC2=C(N3CCCCC3)C(=O)c3ccccc3C2=O)cc1,"inconclusive: 9.2 µM [activator, partial curve]",–
O=C(CSc1ncnc2ccccc12)NCc1ccc2c(c1)OCO2,–,inactive: 3.28%
CCOc1cc(C)nc(NCc2ccccc2)n1,"inconclusive: 16.4 µM [activator, single point]",–
CCC1Nc2ncnc(N3CCc4ccccc4C3)c2N(Cc2ccc(Cl)cc2)C1=O (stereo not given),"inconclusive: 23.1 µM [activator, single point]",–
O=C1CCC2(CC1)NC(=O)N(c1ccccc1)N2,–,inactive: 0.96%
CCN(CC)CCOCCn1c(C)ccc1C,"inconclusive: 0.58 µM [activator, full curve, poor fit]",–
Cc1ccc(NS(=O)(=O)c2ccc(CCC(=O)N3CCCC3)cc2)cc1,"inconclusive: 29.1 µM [activator, single point]",–
COc1ccc(Cn2c(O)c(C=Nc3ccccc3)c3ccccc3c2=O)cc1,–,inactive: -14.5%
COc1ccc(-c2nn(C)c3sc(C(=O)NCCN(C)C)cc23)cc1OC,"inconclusive: 16.4 µM [activator, single point]",–
COc1ccc(-c2cc(C(=O)NN)[nH]n2)cc1OC,"inconclusive: 29.1 µM [activator, single point]",–
COc1cc(CNc2ccc(O)cc2)cc(Br)c1OCc1ccccc1,"inconclusive: 29.1 µM [activator, single point]",–
CCN1CCc2c(C#N)c(N3CCCCC3)nc(NCc3ccccc3)c2C1,"inconclusive: 20.6 µM [activator, single point]",–
c1ccc(CC2CCN(C3=Nc4cccc5cccc3c45)CC2)cc1,"inconclusive: 20.6 µM [activator, single point]",–
Cn1ncc2c(=S)nc(Cl)[nH]c21,"inconclusive: 29.1 µM [activator, single point]",–
CCC1CCCCN1CCCNC(=O)c1ccc2c(c1)c(C)c(C)n2CC (stereo not given),–,inactive: 16.9%
COc1cccc2sc(N(CCCN(C)C)C(=O)c3ccc(S(=O)(=O)N4CCc5ccccc5C4)cc3)nc12,"inconclusive: 20.6 µM [activator, single point]",–
COc1cccc(C2CC(c3ccc(C)cc3)=NN2C(=O)c2ccccc2F)c1OC (stereo not given),"inconclusive: 10.3 µM [activator, partial curve]",–
CC(=O)c1c(C)[nH]c(C(=O)COC(=O)c2cc(C)oc2C)c1C,"inconclusive: 4.11 µM [activator, full curve, poor fit]",–
CCN(CC)S(=O)(=O)c1cccc(C(=O)NCC2CCCO2)c1 (stereo not given),"inconclusive: 29.1 µM [activator, single point]",–
O=C(CCN1C(=O)c2ccccc2S1(=O)=O)Nc1ccccc1O,–,inactive: -699%

# Record cards, as listed above. Values in the order: Potency	re-replication activation
# CCC1CCCCN1CCCNC(=O)c1ccc2c(c1)c(C)c(C)n2CC (stereo not given) reads –	inactive: 16.9%
# c1ccc(CC2CCN(C3=Nc4cccc5cccc3c45)CC2)cc1 reads inconclusive: 20.6 µM [activator, single point]	–
# O=S(=O)(c1ccccc1OC(F)(F)F)N1CCN(c2ccnc3cc(Cl)ccc23)CC1 reads inconclusive: 16.4 µM [activator, partial curve, poor fit]	–
# COc1ccc(-c2cc(C(=O)NN)[nH]n2)cc1OC reads inconclusive: 29.1 µM [activator, single point]	–

# The listing continues:

Compound,Potency,re-replication activation
CCSc1nc(=S)n(Cc2ccccc2)c(C)c1C(C)=O,"inconclusive: 6.51 µM [activator, single point]",–
CCOc1ccc(-c2nc(CN3CCCCC3CCn3cccn3)c(C)o2)cc1 (stereo not given),"inconclusive: 29.1 µM [activator, single point]",–
N#C/C(=C\c1ccc(Cl)cc1)c1nc2ccccc2o1,"inconclusive: 16.4 µM [activator, single point]",–
COc1ccc(Cl)cc1C(=O)OCC(=O)Nc1sccc1C(N)=O,–,inactive: 12%
COc1ccc(NS(=O)(=O)c2cc(NC(=O)C(CC(C)C)NC(N)=O)ccc2N2CCOCC2)cc1 (stereo not given),–,inactive: -3.79%
O=C(CCN1CCc2ccccc2C1)Nc1ccc(F)cc1,–,inactive: 0.205%
CC(CN1CCC(n2nccc2NC(=O)CCCc2ccccc2)CC1)c1ccccc1 (stereo not given),"inconclusive: 25.9 µM [activator, single point]",–
COc1ccc(C(=O)Nc2ccc(O)c3ccccc23)cc1OC,–,inactive: 10.5%
Cc1cccc(S(=O)(=O)Nc2cccc3c2C(=O)c2ccccc2-3)c1,"inconclusive: 14.6 µM [activator, partial curve, poor fit]",–
O=C(Nc1cccc(C(F)(F)F)c1)c1cccnc1,–,inactive: -4.44%
COC(=O)c1c(C(=O)OC)c(-c2ccc(Cl)cc2)n2c1CS(=O)(=O)C2,"inconclusive: 25.9 µM [activator, partial curve, poor fit]",–
Cc1ccc(CNC(=O)c2cn(C3CCCCC3)c(=O)c3c2c2ccccc2n3C)o1,"inconclusive: 29.1 µM [activator, single point]",–
O=C(NC1CC1)c1cccc(NC(=O)C2CCCCC2)c1,–,inactive: -31.8%
C=CCc1cc(Cl)ccc1OCCNCCOC,–,inactive: -6.99%
Oc1ccc(N2CCN(C(=S)NCCc3ccccc3)CC2)cc1,"inconclusive: 2.91 µM [activator, partial curve, poor fit]",–
CCOC(CNCc1cc(C)c2[nH]c3ccccc3c2c1C)OCC,"inconclusive: 29.1 µM [activator, single point]",–
O=C1Nc2ccccc2/C1=C\C(=O)c1ccccc1,"inconclusive: 23.1 µM [activator, single point]",–
O=C(CCl)N1CCN(S(=O)(=O)c2ccc3c(c2)OCCCO3)CC1,"inconclusive: 29.1 µM [activator, single point]",–
Cc1cc(C)nc(NN=C(c2ccccc2)c2ccccc2)n1,active: 10.3 µM,–
O=C(Cc1ccccn1)c1ccc(F)cc1,–,inactive: 6.8%
CCOc1cc(CNCCc2ccc(S(N)(=O)=O)cc2)ccc1OCc1ccccc1,"inconclusive: 18.4 µM [activator, single point]",–
O=S(=O)(c1ccc(S(=O)(=O)N2CCC3(CC2)OCCO3)cc1)N1CCCC1,–,inactive: 8.34%
